# Record: PubChem BioAssay AID720505 (Drosophila RNAi Screening Center, 2013)
# Aim: 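Fly regulators or components of the CRAC channel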 (primary screen)
# System: Drosophila S2R+ cells
# Reagents: long dsRNA against Drosophila genes
# Treatment: thapsigargin (2 µM) in calcium-free buffer to empty internal stores, then 2 mM calcium added back
# Detection: 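Fluo-4 signal in 384-well plates read on a FLIPR after thapsigargin (2 µM, calcium-free) store depletion and 2 mM calcium add-back; unnormalised mean endpoint per well; screen run twice, selected wells retested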
# Scale: calcium signal and retest calcium signal: higher = more calcium entry after store depletion
# Hit rule: 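About 1500 genes called as lowering calcium entry, by varying amounts, judged against per-plate control wells with STIM1 as positive and Rho1 as negative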
# Calls: active = called as lowering calcium entry; inactive = not called
# The deposit covers about 20,000 reagents; below is a random part of those with a known target gene and a result. Over the whole deposit, about 2,100 (10%) got an active call. 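Raw plate signals without normalisation; calls rest on control-based scores that were not deposited; replicate 2 separates called from uncalled poorly.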 A plus sign joins genes that one reagent is predicted to hit. Not stated in the record: the amount of reagent, the time to read-out.
target gene,DRSC id,"calcium signal, replicate 1","calcium signal, replicate 2","retest calcium signal, replicate 1","retest calcium signal, replicate 2",Call
CG11307 (GeneID 40400),DRSC11648,105,89,138,91.9,inactive
rho-6 (GeneID 34640),DRSC02588,82.5,94.6,,,inactive
CG11598 (GeneID 41554),DRSC14331,71.3,168,,,active
CG14565 (GeneID 40423),DRSC11726,114,177,,,inactive
CG10597 (GeneID 32714),DRSC19357,64.2,103,7394,188,active
CG8260 (GeneID 32521),DRSC20098,93.8,151,,,inactive
CNBP (GeneID 37646),DRSC04116,142,194,,,inactive
CNBP (GeneID 37646),DRSC04419,183,134,112,131,inactive
CNBP (GeneID 37646),DRSC21317,138,99.3,,,inactive
CG42537 (GeneID 8674074),DRSC12519,117,130,,,inactive
CG10445 (GeneID 40938),DRSC14247,102,152,,,inactive
psd (GeneID 33830),DRSC03131,140,102,,,inactive
Hsp110 (GeneID 39557),DRSC11186,95.9,111,,,inactive
brv2 (GeneID 39932),DRSC10226,71.7,143,,,inactive
Top2 (GeneID 35225),DRSC03459,122,108,,,inactive
NAAT1 (GeneID 31457),DRSC18300,117,91.2,,,inactive
CG14684 (GeneID 41281),DRSC14907,157,105,,,inactive
CG11018 (GeneID 37259),DRSC06024,145,125,,,inactive
Cdc6 (GeneID 38989),DRSC10563,85.8,95.8,,,inactive
veil (GeneID 36968),DRSC06892,120,133,,,inactive
CG12065 (GeneID 31798),DRSC17798,117,111,,,inactive
CG12065 (GeneID 31798),DRSC17799,195,89,,,inactive
CG14286 (GeneID 42280),DRSC14767,107,101,,,inactive
CG30375 (GeneID 246575),DRSC06834,158,97,,,inactive
CadN2 (GeneID 35071),DRSC03062,146,141,,,inactive
CadN2 (GeneID 35071),DRSC03063,110,105,,,inactive
CadN2 (GeneID 35071),DRSC03064,105,133,,,inactive
CG14445 (GeneID 31556),DRSC17938,296,79.3,,,inactive
asrij (GeneID 37637),DRSC04175,167,228,,,inactive
CG31960 (GeneID 319047),DRSC00281,138,88.8,,,inactive
MED22 (GeneID 31038),DRSC18175,119,135,,,inactive
CG31248 (GeneID 40853),DRSC22722,154,196,,,inactive
Nuak (GeneID 41256),DRSC14414,135,118,,,inactive
Nuak (GeneID 41256),DRSC14415,92.6,80.9,,,inactive
Nuak (GeneID 41256),DRSC14416,120,91.2,,,inactive
disp (GeneID 44274),DRSC12376,120,180,,,inactive
CG30460 (GeneID 36924),DRSC06559,109,140,,,inactive
CG30460 (GeneID 36924),DRSC06560,62.1,94.7,,,active
CG30460 (GeneID 36924),DRSC23115,99.7,149,,,inactive
retm (GeneID 33899),DRSC03252,108,217,,,inactive
lute (GeneID 42089),DRSC14812,133,144,,,inactive
lute (GeneID 42089),DRSC15769,176,218,,,inactive
CG18536 (GeneID 37093),DRSC06763,187,115,,,inactive
Rgk1 (GeneID 14462605),DRSC05785,80.3,148,,,inactive
Rgk1 (GeneID 14462605),DRSC05786,119,89.3,,,inactive
Rgk1 (GeneID 14462605),DRSC05789,145,88.7,,,inactive
Rgk1 (GeneID 14462605),DRSC07343,149,119,,,inactive
Rgk1 (GeneID 14462605),DRSC07344,104,114,,,inactive
nmo (GeneID 38890),DRSC11377,92.4,138,,,inactive

A run of entries from the list above, for reference:
target gene,DRSC id,"calcium signal, replicate 1","calcium signal, replicate 2","retest calcium signal, replicate 1","retest calcium signal, replicate 2",Call
rho-6 (GeneID 34640),DRSC02588,82.5,94.6,,,inactive
CG11598 (GeneID 41554),DRSC14331,71.3,168,,,active
CG14565 (GeneID 40423),DRSC11726,114,177,,,inactive
CG10597 (GeneID 32714),DRSC19357,64.2,103,7394,188,active
CG8260 (GeneID 32521),DRSC20098,93.8,151,,,inactive
CNBP (GeneID 37646),DRSC04116,142,194,,,inactive

The listing continues:
target gene,DRSC id,"calcium signal, replicate 1","calcium signal, replicate 2","retest calcium signal, replicate 1","retest calcium signal, replicate 2",Call
GstE4 (GeneID 37109),DRSC06674,129,105,,,inactive
CG34129 (GeneID 43181),DRSC15960,251,112,,,inactive
CG12948 (GeneID 41187),DRSC14576,165,76.3,,,inactive
IPIP (GeneID 33849),DRSC02164,116,215,,,inactive
CG3223 (GeneID 40947),DRSC15468,122,228,,,inactive
CG3091 (GeneID 31210),DRSC18274,111,126,,,inactive
CG12546 (GeneID 40483),DRSC11676,67.1,114,,,active
ND-51L1 (GeneID 36998),DRSC06072,143,146,,,inactive
CG14194 (GeneID 32908),DRSC19549,67.4,181,,,active
clumsy (GeneID 35394),DRSC03111,50.5,162,,,inactive
CG6294 + CG6299,DRSC19980,68.5,131,,,active
Hrb98DE (GeneID 43385),DRSC16709,78,133,,,inactive
Fmo-2 (GeneID 35561),DRSC04983,140,91.8,,,inactive
CR33315 (GeneID 3771801),DRSC22947,94.8,138,,,inactive
CG5326 (GeneID 42655),DRSC15770,226,251,,,inactive
CG7985 (GeneID 42178),DRSC14128,192,335,,,inactive
Polr2H (GeneID 40415),DRSC11642,85.2,74.1,,,inactive
CG4630 (GeneID 36458),DRSC06874,148,132,,,inactive
CG7065 (GeneID 31844),DRSC18420,135,134,,,inactive
CG15249 (GeneID 31924),DRSC17978,139,109,,,inactive
Rh2 (GeneID 42261),DRSC16821,194,98.4,,,inactive
IntS10 (GeneID 38444),DRSC08173,63.1,136,,,inactive
Teh1 (GeneID 41215),DRSC14544,165,80.2,,,inactive
CG31493 (GeneID 318765),DRSC12583,102,125,,,inactive
CG15472 (GeneID 31409),DRSC18055,271,99.2,,,inactive
CG7059 (GeneID 42626),DRSC16187,206,183,,,inactive
CG10514 (GeneID 43052),DRSC14249,238,124,,,inactive
Rbp (GeneID 41880),DRSC15724,79.9,124,,,inactive
Rbp (GeneID 41880),DRSC15726,122,104,,,inactive
CG8501 (GeneID 36347),DRSC07198,245,178,,,inactive
Sesn (GeneID 37755),DRSC04101,179,74.3,,,inactive
Sesn (GeneID 37755),DRSC04102,133,142,,,inactive
Sesn (GeneID 37755),DRSC04103,155,206,,,inactive
bug (GeneID 36749),DRSC07137,97.9,92.6,,,inactive
